Common to all, as to test: DAPPL (digital affinity profiling via proximity ligation, sequencing)
Conditions in all cases: 10 mM Tris-HCl pH 7.5, 50 mM NaCl, 1 mM DTT, 4% glycerol, room temperature, 30 min; GST-TFs on glutathione beads, 16-mer random dsDNA library, 0.1% …; high values mean tight binding; double strand, one strand shown; scale: fold enrichment (6-mer frequency, TF over GST control)

One test deals with T1, GABPA (UniProt Q06546).
T1 sequence: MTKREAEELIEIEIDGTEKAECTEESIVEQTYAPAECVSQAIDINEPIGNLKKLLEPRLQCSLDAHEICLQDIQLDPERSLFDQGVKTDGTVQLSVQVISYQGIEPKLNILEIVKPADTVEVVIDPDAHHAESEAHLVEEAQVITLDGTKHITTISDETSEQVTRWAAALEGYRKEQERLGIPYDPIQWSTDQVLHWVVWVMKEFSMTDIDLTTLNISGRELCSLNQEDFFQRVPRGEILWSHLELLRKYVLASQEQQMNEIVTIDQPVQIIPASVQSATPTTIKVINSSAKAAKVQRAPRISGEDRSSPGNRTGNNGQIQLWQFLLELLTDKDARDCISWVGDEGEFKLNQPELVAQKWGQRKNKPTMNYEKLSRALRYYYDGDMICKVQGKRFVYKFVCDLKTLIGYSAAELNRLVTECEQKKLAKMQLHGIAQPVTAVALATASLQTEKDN

A further test addresses T2, ETS1 (UniProt P14921).
T2 sequence: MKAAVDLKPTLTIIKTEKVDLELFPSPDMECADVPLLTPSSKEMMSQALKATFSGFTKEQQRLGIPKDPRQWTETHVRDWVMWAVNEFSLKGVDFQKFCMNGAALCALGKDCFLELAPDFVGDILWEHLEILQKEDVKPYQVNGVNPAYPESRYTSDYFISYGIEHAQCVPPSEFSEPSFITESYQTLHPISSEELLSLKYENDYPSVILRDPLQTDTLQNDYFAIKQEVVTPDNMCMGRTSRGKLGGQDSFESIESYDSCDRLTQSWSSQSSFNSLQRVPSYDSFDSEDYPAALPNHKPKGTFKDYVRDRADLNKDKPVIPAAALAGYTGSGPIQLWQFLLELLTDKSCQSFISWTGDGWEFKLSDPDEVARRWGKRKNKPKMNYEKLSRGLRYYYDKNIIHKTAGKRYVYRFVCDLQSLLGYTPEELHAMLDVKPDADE

For a further test, the target named is T3, SPDEF (UniProt O95238).
T3 sequence: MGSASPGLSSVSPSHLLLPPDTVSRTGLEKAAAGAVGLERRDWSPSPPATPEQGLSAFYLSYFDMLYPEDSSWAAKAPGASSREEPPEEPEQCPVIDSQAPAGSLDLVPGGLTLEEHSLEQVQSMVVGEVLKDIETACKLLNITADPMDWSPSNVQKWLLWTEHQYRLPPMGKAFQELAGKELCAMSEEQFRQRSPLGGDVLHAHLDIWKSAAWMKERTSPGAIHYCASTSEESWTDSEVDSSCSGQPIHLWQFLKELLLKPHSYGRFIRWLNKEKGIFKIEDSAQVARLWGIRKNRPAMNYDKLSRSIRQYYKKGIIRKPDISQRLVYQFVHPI

This is a selection; strong and weak results do not stand in their true shares. For part of these data: At the low end of the ranking, values are background and their order means little. Some of the results follow. For part of these data: The exact form of the protein is not confirmed.

As to TTCCCC, the binding signal worked out at 1.71 with GABPA and 1.68 with ETS1.
As for GAATCC, the binding signal with GABPA came out at 1.08; with ETS1, 1.12.
Taken in the same sequence, the figures for ATTGAT were 1.39 and 1.19.
Turning to CGCTCA, the binding signal with GABPA was 1.16; with ETS1, 1.19.
Taken in the same sequence, the figures for TACCCA were 1.12 and 1.09.
For CTCATG the same measures were 1.26 and 1.23.
For GTGGCT the same measures were 1.27 and 1.14.
On to ACTTTC, for which the results for the binding signal in the test with GABPA and with ETS1 were 1.59 and 1.5, respectively.
TCTAGT: the values for the binding signal in the test with GABPA and with ETS1 were 1.17 and 1.14, respectively.
For CTCGTA the same measures were 1.3 and 1.21.
Take TTCTCG: the binding signal with GABPA worked out at 1.55; with ETS1, 1.41.
For the sequence CTCGCC, the binding signal with GABPA and with ETS1 was 1.26 in each case.
For GCTGTA, the binding signal amounted to 1.15 with GABPA and 0.972 with ETS1.
Taken in the same sequence, the figures for CGTCCC were 1.42 and 1.27.
CTTGAT: the binding signal with GABPA was found to be 1.52; in the test with ETS1, 1.35.
As for TCTGTT, the binding signal with GABPA came to 1.24; with ETS1, 1.36.
TTACTC: the binding signal with GABPA and with ETS1 was 1.26 in each case.
Consider TAATGT, for which the binding signal with GABPA and with ETS1 was 1.08 in each case.
Take TGCTTT: the binding signal with GABPA came out at 1.12; in the test with ETS1, 1.05.
With TGTGAC, the results for the binding signal with GABPA and with ETS1 were 1.15 and 1.09, respectively.
For GTATTC the same measures were 1.26 and 1.36.
Taken in the same sequence, the figures for TATATA were 1.26 and 1.39.
Taken in the same sequence, the figures for TTTAGG were 1.11 and 1.13.
Take AAGTGG: the figures for the binding signal with GABPA and with ETS1 were 1.22 and 1.17, respectively.
Taken in the same sequence, the figures for GATGGT were 1.16 and 1.3.
For TGAAAA the same measures were 0.995 and 1.13.
Regarding AATAAT, the binding signal was 1.31 with GABPA and 1.34 with ETS1.
Taken in the same sequence, the figures for CAACAT were 1.22 and 1.17.
Consider GTAACT, for which the binding signal with GABPA came out at 1.22; in the test with ETS1 it was 1.28.
For CATGAA the same measures were 1.03 and 1.03.
For GAAATA the same measures were 1.48 and 1.5.
Taken in the same sequence, the figures for ACCGAT were 1.2 and 1.11.
With TTTATG, the results for the binding signal with GABPA and with ETS1 were 1.4 and 1.32, respectively.
On to ATCTGA, for which the binding signal is 1.21 with GABPA and 1.12 in the test with ETS1.
For GATCTC the same measures were 1.16 and 1.24.
As to TTTGGT, the binding signal with GABPA was 1.42; with ETS1 it was 1.47.
Turning to CCTCCC, the results for the binding signal in the test with GABPA and with ETS1 were 1.45 and 1.53, respectively.
CTAATC: the figures for the binding signal with GABPA and with ETS1 were 1.34 and 1.29, respectively.
In the case of ATAGTA, the binding signal stood at 1.19 with GABPA and 1.13 with ETS1.
For the sequence TAGTCC, the values for the binding signal in the test with GABPA and with ETS1 were 1.12 and 1.25, respectively.
Take TTATTG: the binding signal came out at 1.28 in the test with GABPA and 1.35 with ETS1.
On to CTAATT, for which the results for the binding signal in the test with GABPA and in the test with ETS1 were 1.33 and 1.34, respectively.
With TCCTAT, the binding signal with GABPA stood at 1.58; in the test with ETS1, 1.63.
With CTCTGG, the binding signal in the test with GABPA was 1.3; in the test with ETS1, 1.41.
For GAATTT the same measures were 1.21 and 1.33.
Taken in the same sequence, the figures for CGTCCG were 1.24 and 1.18.
For CGGCTC the same measures were 1.2 and 1.22.
With CTCGAT, the binding signal came out at 1.32 with GABPA and 1.38 in the test with ETS1.
In the case of TACAAG, the binding signal was 0.987 with GABPA and 1.02 with ETS1.
In the case of TCCCTA, the binding signal with GABPA came out at 1.26; with ETS1, 1.33.
Taken in the same sequence, the figures for ATGAGC were 1.33 and 1.24.
For the sequence CCCCAT, the figures for the binding signal with GABPA and in the test with ETS1 were 1.26 and 1.27, respectively.
Taken in the same sequence, the figures for CTTTTC were 1.34 and 1.47.
Consider TAAACA, for which the binding signal was 1.19 with GABPA and 1.24 with ETS1.
Taken in the same sequence, the figures for CGATCT were 1.29 and 1.41.
For CTCATT the same measures were 1.44 and 1.54.
Turning to CGAGCT, the binding signal with GABPA is 1.09; with ETS1, 1.2.
Regarding CCTGGT, the binding signal with GABPA and with ETS1 was 1.4 throughout.
On to TCCCGC, for which the binding signal is 1.4 with GABPA and 1.39 with ETS1.
For ATATAC the same measures were 1.2 and 1.13.
For ATCGAT the same measures were 1.19 and 1.11.
Take TTCCAG: the binding signal was 0.971 in the test with GABPA and 1.07 in the test with ETS1.
Taken in the same sequence, the figures for TTCAGT were 1.06 and 1.07.
Consider GTACAT, for which the binding signal with GABPA was 1.17; with ETS1, 1.39.
As to AAATTG, the binding signal is 1.26 with GABPA and 1.31 with ETS1.
Taken in the same sequence, the figures for GATCTT were 1.32 and 1.2.
For ACTCTC the same measures were 1.41 and 1.48.
For TGTAGC the same measures were 1.16 and 1.19.
ATCTCC: the binding signal in the test with GABPA was determined as 1.56; in the test with ETS1 it was 1.41.
Taken in the same sequence, the figures for TGGCTT were 1.33 and 1.28.
Consider CGAAAG, for which the binding signal amounted to 1.08 in the test with GABPA and 1.06 in the test with ETS1.
For CTTGGG, the binding signal in the test with GABPA amounted to 1.36; in the test with ETS1, 1.22.
For the sequence CTGATC, the binding signal worked out at 1.4 with GABPA and 1.27 with ETS1.
For TGGCAA the same measures were 1.22 and 1.31.
For TACTGC the same measures were 1.17 and 1.2.
On to TACATG, for which the binding signal is 1.14 in the test with GABPA and 1.19 in the test with ETS1.
In the case of TCACAG, the binding signal is 1.1 in the test with GABPA and 1.07 with ETS1.
Taken in the same sequence, the figures for GGTATT were 1.23 and 1.28.
With TGGTTC, the figures for the binding signal with GABPA and with ETS1 were 1.35 and 1.38, respectively.
Turning to ATGGGT, the figures for the binding signal in the test with GABPA and with ETS1 were 1.28 and 1.34, respectively.
For TCACAT, the binding signal with GABPA turned out to be 1.23; with ETS1, 1.33.
Taken in the same sequence, the figures for ATTTCC were 3.59 and 3.57.
As to AGCTAA, the binding signal with GABPA is 0.959; with ETS1, 1.04.
Take GAACCA: the binding signal with GABPA is 1.05; in the test with ETS1, 1.03; with SPDEF, 0.975.
With ACAGAT, the binding signal with GABPA was determined as 0.987; with ETS1, 1.01.
Taken in the same sequence, the figures for TTTAAA were 1.19 and 1.29.
Taken in the same sequence, the figures for ATATGG were 1.28 and 1.34.
As for CTGCAA, the values for the binding signal with GABPA, with ETS1 and with SPDEF were 1.2, 1.28 and 1.11, respectively.
For the sequence TAATTG, the binding signal in the test with GABPA was determined as 1.38; with ETS1, 1.37.
For TATGAA, the binding signal with GABPA is 1.21; with ETS1, 1.18; in the test with SPDEF, 1.16.
As for TGCTAA, the binding signal was 1.18 with GABPA and 1.24 with ETS1.
Take GTCCTA: the binding signal in the test with GABPA was 1.22; with ETS1, 1.29; in the test with SPDEF, 1.29.
On to CAAAAA, for which the binding signal in the test with GABPA came to 1.16; in the test with ETS1, 1.21; with SPDEF it was 1.07.
In the case of ATCTTC, the binding signal with GABPA is 1.48; in the test with ETS1, 1.5.
Taken in the same sequence, the figures for ACTTTT were 1.34 and 1.32.
For TCGACT the same measures were 1.3 and 1.43.
For CCTATC the same measures were 1.13 and 1.17.
For AATGAG, the binding signal came out at 1.22 with GABPA and 1.18 with ETS1.
Take TGCTGA: the binding signal with GABPA amounted to 1.07; with ETS1, 1.05.
Regarding ACCTAC, the binding signal in the test with GABPA was determined as 1.21; with ETS1, 1.13.
For the sequence AAGCAG, the binding signal is 1.13 in the test with GABPA and 1.16 with ETS1.
AATGGC: the binding signal with GABPA turned out to be 1.37; with ETS1, 1.42.
Taken in the same sequence, the figures for ACCGTC were 1.26 and 1.15.
Taken in the same sequence, the figures for ACTACT were 1.28 and 1.3.
Taken in the same sequence, the figures for ATATCG were 1.14 and 1.2.
Regarding TGCGTA, the binding signal with GABPA is 1.06; in the test with ETS1 it was 1.12.
TGCTGT: the binding signal with GABPA was determined as 0.992; with ETS1 it was 1.02; in the test with SPDEF, 0.984.
For AAACCA, the binding signal in the test with GABPA and in the test with ETS1 was 1.14 in each case.
Regarding TATCTA, the binding signal with GABPA came to 1.35; with ETS1, 1.26.
In the case of TTGGCC, the binding signal with GABPA was 1.23; in the test with ETS1 it was 1.08; with SPDEF, 1.06.
TTACCG: the binding signal with GABPA worked out at 1.12; in the test with ETS1, 1.22.
Taken in the same sequence, the figures for AACCTC were 1.28 and 1.15.

These data come from article PMC7862700.
